This is an account of results in PMC2682567.

This experiment concerns the target T1, IRF3 (endogenous, MEF cells) (mouse (endogenous in MEF cells)), P70671.
T1 chain: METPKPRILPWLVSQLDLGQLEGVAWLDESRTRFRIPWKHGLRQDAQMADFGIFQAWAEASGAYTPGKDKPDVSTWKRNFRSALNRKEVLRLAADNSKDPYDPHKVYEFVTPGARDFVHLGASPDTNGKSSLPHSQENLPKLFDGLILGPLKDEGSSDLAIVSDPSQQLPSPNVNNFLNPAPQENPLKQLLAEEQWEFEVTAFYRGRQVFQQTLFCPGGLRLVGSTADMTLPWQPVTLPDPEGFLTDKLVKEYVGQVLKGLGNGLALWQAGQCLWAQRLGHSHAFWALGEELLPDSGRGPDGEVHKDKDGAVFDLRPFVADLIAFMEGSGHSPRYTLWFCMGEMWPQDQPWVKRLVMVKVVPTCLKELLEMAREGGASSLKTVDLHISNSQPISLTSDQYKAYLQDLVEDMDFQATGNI
In words: native gel or EMSA. To be noted: remark: other sources report otherwise. (In EMSA bound probe runs differently from free probe, usually more slowly.)

Results are given in words; binding and its absence hold for the method and conditions named. Some results given as binding are weak or reduced against the parent protein; the word gives no strength.

B1: IRF3 (endogenous, MEF cells), P70671 1-419 (protein)
chain: METPKPRILPWLVSQLDLGQLEGVAWLDESRTRFRIPWKHGLRQDAQMADFGIFQAWAEASGAYTPGKDKPDVSTWKRNFRSALNRKEVLRLAADNSKDPYDPHKVYEFVTPGARDFVHLGASPDTNGKSSLPHSQENLPKLFDGLILGPLKDEGSSDLAIVSDPSQQLPSPNVNNFLNPAPQENPLKQLLAEEQWEFEVTAFYRGRQVFQQTLFCPGGLRLVGSTADMTLPWQPVTLPDPEGFLTDKLVKEYVGQVLKGLGNGLALWQAGQCLWAQRLGHSHAFWALGEELLPDSGRGPDGEVHKDKDGAVFDLRPFVADLIAFMEGSGHSPRYTLWFCMGEMWPQDQPWVKRLVMVKVVPTCLKELLEMAREGGASSLKTVDLHISNSQPISLTSDQYKAYLQDLVEDMDFQATGNI
On to B1, for which the binding entry is reported as “binds”.
